The target of assay [1] is RIZ1 (PR+ protein form coded by the PRDM2 gene), human, endogenous in TCam-2 cells (human (endogenous in TCam-2)) (UniProt Q13029). Put plainly: condition: only basal condition, cells without E2 treatment; co-IP; as a1, TCam-2 cells in basal condition (no E2 treatment); 1 mg lysate, anti-RIZ N-20, anti-rabbit IgG beads, Western blot for ERα. A general note: In western blotting, separated proteins are transferred to a membrane and probed.

Protein sequences, listed by entry. Tags and fused reporters are not part of them.
UniProt Q13029: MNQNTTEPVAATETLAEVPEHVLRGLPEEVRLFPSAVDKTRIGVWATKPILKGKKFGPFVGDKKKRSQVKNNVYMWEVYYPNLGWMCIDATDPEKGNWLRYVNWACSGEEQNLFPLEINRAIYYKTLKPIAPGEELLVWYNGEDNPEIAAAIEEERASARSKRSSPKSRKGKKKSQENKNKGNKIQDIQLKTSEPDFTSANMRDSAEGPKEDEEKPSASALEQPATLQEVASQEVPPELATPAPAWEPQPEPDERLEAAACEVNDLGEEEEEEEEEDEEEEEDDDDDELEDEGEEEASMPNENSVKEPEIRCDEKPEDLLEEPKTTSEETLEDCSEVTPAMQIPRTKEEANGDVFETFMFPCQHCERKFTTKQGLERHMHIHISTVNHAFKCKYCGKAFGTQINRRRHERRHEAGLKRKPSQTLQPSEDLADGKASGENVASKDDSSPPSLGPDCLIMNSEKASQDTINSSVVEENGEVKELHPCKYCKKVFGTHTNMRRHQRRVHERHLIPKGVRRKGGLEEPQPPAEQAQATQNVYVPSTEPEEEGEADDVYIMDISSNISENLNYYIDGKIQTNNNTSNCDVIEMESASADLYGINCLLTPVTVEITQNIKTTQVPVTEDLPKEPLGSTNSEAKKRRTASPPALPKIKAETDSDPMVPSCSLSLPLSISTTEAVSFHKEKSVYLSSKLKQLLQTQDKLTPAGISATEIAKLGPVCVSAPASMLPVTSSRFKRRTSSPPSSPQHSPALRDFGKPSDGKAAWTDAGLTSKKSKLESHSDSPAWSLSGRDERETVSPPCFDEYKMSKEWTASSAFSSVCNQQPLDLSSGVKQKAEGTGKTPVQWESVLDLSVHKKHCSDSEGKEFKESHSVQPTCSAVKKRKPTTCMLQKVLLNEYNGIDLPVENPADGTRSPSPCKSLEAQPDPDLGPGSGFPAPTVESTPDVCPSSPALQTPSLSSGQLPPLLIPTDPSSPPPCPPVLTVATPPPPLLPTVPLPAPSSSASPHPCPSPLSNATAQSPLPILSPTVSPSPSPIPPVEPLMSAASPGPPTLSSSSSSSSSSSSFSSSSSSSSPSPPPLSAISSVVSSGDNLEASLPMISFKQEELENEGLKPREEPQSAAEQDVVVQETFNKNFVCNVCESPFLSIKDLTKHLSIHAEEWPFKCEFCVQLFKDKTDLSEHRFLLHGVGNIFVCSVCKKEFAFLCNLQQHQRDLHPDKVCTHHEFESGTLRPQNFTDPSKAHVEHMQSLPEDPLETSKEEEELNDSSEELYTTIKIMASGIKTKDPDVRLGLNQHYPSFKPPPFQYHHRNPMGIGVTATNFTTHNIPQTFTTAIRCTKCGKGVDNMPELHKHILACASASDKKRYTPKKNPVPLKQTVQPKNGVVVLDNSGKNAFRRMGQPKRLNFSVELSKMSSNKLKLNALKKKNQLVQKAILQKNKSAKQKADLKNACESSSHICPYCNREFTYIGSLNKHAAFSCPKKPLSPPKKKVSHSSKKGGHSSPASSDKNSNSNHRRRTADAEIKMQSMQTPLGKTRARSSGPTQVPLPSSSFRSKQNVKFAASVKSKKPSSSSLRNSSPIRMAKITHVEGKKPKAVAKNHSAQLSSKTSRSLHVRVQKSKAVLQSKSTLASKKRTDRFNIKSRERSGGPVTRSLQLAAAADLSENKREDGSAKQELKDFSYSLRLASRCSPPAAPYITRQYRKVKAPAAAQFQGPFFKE
UniProt A2A7B5: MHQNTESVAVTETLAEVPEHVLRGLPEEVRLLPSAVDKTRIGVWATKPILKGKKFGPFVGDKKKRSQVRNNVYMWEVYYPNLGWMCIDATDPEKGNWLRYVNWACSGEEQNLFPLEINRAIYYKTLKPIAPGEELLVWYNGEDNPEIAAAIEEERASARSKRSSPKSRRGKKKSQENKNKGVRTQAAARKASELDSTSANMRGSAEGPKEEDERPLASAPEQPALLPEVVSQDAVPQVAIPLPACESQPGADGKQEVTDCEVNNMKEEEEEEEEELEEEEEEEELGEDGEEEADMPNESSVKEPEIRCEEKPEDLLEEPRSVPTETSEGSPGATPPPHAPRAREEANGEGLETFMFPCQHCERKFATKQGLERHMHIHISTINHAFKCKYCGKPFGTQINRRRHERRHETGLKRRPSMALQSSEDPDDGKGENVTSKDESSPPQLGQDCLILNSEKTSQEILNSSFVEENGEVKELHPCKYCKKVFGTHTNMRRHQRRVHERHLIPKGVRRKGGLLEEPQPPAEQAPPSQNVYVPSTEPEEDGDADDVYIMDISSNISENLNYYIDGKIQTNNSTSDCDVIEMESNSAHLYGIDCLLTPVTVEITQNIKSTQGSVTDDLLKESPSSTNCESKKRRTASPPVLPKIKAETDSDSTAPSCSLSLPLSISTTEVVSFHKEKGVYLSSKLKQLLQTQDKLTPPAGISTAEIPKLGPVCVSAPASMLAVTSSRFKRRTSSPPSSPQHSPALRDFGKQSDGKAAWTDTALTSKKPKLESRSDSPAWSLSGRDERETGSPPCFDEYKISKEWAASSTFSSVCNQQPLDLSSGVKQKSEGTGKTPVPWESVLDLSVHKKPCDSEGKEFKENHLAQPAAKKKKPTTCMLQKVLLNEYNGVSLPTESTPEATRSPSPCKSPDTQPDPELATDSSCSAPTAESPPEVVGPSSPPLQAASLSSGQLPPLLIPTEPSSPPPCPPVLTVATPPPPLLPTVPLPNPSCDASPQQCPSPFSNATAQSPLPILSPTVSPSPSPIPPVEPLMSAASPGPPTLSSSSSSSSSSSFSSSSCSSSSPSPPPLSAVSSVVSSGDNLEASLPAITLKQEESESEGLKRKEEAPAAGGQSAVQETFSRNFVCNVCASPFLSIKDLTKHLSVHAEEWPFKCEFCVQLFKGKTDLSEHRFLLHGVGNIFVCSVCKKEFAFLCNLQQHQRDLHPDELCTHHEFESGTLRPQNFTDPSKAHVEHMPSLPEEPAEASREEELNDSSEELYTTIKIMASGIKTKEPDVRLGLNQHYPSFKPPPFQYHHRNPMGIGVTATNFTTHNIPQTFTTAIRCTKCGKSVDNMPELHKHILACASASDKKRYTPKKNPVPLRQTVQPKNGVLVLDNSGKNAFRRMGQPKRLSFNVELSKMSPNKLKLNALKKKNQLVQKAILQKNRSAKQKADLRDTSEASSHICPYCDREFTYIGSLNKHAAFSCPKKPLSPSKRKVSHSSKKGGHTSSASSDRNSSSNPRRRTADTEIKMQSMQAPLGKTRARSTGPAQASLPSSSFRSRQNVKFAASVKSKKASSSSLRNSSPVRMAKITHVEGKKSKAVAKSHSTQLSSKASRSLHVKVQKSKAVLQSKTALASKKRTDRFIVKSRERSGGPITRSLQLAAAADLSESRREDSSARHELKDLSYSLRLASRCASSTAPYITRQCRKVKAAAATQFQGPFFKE
UniProt P03372: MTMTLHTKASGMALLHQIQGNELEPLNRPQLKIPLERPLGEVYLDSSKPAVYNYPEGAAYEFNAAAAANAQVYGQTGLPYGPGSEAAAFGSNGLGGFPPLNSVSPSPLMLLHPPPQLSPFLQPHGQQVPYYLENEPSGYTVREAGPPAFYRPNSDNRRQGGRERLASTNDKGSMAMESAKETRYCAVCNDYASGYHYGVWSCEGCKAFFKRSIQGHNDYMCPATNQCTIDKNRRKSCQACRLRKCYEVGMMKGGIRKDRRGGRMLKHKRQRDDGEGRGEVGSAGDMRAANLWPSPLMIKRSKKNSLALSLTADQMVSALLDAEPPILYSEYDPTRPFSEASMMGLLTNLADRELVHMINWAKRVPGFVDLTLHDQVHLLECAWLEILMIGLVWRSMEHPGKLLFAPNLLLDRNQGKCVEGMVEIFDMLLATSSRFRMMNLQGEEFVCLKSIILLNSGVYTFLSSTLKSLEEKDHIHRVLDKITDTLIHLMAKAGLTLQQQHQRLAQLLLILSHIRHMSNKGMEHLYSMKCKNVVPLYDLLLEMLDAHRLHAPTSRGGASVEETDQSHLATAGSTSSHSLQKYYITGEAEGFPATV
UniProt P19785: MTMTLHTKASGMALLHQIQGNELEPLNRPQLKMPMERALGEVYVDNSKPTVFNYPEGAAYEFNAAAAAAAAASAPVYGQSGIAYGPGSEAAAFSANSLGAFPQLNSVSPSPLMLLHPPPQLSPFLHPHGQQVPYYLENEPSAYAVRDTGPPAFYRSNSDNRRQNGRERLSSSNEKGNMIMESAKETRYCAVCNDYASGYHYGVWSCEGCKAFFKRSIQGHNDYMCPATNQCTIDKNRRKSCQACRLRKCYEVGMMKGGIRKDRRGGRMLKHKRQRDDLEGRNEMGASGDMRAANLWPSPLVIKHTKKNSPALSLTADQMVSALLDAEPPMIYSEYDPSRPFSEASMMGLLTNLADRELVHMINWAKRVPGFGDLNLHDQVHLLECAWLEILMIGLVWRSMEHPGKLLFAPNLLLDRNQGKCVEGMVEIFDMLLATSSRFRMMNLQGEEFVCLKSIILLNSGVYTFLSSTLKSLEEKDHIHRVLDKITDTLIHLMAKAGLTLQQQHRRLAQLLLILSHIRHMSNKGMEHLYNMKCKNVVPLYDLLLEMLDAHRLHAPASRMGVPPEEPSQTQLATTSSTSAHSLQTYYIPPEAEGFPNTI

The target is the same in assay [2]. The assay can be described thus: co-IP; 1 mg total protein cell lysate of GC-1 or TCam-2 cells incubated with 4 µg rabbit polyclonal anti-RIZ N-20, immunocomplexes pulled down with anti-rabbit IgG beads, Western blot for RIZ and ERα; cells treated with 100 nM 17β-estradiol (E2) for 0, 5, 15, 30 or 60 minutes.
Assay [3] has as its target RIZ1 (PR+ protein form coded by the PRDM2 gene), mouse, endogenous in GC-1 cells (mouse (endogenous in GC-1)) (UniProt A2A7B5). The description is as above.

No constants are given. Whether binding was seen depends on the method and setting. In cells and extracts the contact can be indirect. Some entries that bind do so weakly or less than the wild type.

Consider “estrogen receptor α (ERα), human, endogenous in TCam-2 cells (from UniProt P03372 1-595)”, for which the values for the binding result in assay [1] and in assay [2] were “no binding” and “binds”, respectively.
Consider “estrogen receptor α (ERα), mouse, endogenous in GC-1 cells (from UniProt P19785 1-599)”, for which the binding result in assay [3] is given as “binds”.

For the origin of these results see paper PMC5192434.
